Source: publication PMC11303327, “MnoSR removal in Mycobacterium smegmatis triggers broad transcriptional response to 1,3-propanediol and glucose as sole carbon sources”
A negative result means that nothing was seen under these conditions. Where a protein sequence is shown, tags need not be part of it. For some assays here: For at least one entry, the source does not settle the construct or the ends of the probe.

What was measured:
[1] = target: T1, MnoR (Mycobacterium smegmatis) (UniProt A0R5L8); experiment: EMSA; details: 10 ng salmon sperm DNA, up to 10 µM MnoR; EMSA: 50 mM Tris-HCl (pH not stated), 100 mM NaCl, 10 mM MgCl2, 100 ug/ml BSA, 5% glycerol, 5 nM DNA, 30 min 25 °C, 5% native gel at 4 °C; recombinant protein; residues 1-216; protein details: N-terminal 6xHis; label: 5'-Cy5 on strand 1
T1 sequence (looked up): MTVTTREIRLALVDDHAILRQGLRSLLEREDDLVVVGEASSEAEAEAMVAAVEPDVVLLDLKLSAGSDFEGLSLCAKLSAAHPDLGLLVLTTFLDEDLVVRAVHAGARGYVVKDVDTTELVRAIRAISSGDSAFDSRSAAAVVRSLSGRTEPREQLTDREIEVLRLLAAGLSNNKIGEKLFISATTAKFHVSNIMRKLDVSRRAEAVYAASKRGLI

[2] = target: T1, MnoR (Mycobacterium smegmatis); experiment: MST; details: PBS-T, room temperature, DNA 60 nM (perfect), 15 nM (2MM), 120 nM (4MM), recombinant protein, residues 1-216, protein details: N-terminal 6xHis, label: 5'-Cy5 on strand 1

ACCTGGCGGATCTGAGCCCGGCAGGCGATCCGCACACCGGTACCGTGCTGGTGGGCGCGAGCCCCGAGTTGCTGGTCGCCCGCGACG / CGTCGCGGGCGACCAGCAACTCGGGGCTCGCGCCCACCAAGCACGGTACCGGTGTGCGGATCGCCTGCCGGGCTCAGATCCGCCAGGT [mno 2MM]
binding result [1]: no binding | Kd [2]: 11.7 µM

GCTGGAGGAGGCGTTCACCGCTGACTGGCTCGCCCAGCACTCCTAAGCCGGTGGGCGCCGTCACCCGCGGCACCACCGGTTACAACC (double strand) [mno 3MM]
binding result [1]: no binding

CACGCTGATCACGTCCGACGTCGACGAGCGCGACCAGCCGTTCATCACCGGTGAGCGCACCAAGGAAGGCTTCTTCCGCGTGAAGAA (double strand) [mno 4MM]
binding result [1]: no binding | binding result ([2]; up to 27.5 µM MnoR): no binding
